According to PMC4637307:
No constants are given. Whether binding was seen depends on the method and setting. In cells and extracts the contact can be indirect. Some results given as binding are weak or reduced against the parent protein; the word gives no strength.

Sequences of proteins named here, by UniProt entry; tags and fusion partners are left off.
UniProt P17931: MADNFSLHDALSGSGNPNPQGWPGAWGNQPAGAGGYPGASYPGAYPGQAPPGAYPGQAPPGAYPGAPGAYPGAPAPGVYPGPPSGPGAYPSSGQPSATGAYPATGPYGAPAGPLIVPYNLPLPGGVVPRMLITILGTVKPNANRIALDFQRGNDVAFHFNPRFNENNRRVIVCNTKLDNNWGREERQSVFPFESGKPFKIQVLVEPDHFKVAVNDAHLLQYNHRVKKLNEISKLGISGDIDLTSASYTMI
UniProt P08183: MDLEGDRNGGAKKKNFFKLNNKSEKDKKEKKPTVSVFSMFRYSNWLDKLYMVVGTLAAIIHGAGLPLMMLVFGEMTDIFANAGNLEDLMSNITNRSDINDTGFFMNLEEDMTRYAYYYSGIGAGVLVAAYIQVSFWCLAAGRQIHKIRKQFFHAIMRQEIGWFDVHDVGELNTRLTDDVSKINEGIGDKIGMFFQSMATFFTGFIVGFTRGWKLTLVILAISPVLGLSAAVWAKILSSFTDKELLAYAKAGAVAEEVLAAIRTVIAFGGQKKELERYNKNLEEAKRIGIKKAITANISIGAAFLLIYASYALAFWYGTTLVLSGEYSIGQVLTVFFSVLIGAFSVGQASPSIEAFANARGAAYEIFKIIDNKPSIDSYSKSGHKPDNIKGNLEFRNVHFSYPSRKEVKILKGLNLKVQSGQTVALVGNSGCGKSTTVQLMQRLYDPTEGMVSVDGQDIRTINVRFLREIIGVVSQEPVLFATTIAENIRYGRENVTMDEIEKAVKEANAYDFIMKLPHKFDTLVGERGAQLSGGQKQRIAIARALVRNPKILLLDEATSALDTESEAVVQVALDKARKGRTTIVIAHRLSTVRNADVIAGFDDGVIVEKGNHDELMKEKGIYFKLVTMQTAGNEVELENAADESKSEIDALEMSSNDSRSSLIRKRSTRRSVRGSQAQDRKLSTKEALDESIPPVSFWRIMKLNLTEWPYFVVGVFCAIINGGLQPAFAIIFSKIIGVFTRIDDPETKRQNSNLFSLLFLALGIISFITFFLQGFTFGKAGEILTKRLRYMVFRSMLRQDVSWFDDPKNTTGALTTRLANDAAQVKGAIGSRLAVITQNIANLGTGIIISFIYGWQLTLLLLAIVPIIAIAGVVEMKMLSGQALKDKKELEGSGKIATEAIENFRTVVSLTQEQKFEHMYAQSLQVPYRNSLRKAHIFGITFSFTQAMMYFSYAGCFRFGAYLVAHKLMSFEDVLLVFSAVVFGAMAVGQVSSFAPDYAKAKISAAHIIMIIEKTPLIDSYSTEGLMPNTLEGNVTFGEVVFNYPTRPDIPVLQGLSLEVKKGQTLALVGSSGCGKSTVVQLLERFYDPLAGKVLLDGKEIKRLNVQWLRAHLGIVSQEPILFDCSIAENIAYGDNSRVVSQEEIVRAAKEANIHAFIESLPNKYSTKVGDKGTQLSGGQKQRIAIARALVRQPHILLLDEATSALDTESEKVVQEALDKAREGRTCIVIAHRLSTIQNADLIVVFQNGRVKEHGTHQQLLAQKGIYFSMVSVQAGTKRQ

Experiments:
[1] = molecular target: recombinant Gal-3-V5 (UniProt P17931); experiment: co-IP; HT1080 cells in media lacking FBS, 0.5 micromolar rGal-3-V5 with or without 1% GCS-100/MCP for 24 h; lysates immunoprecipitated with V5 antibody, blotted for P-gp; only the target purified
[2] = molecular target: P-glycoprotein (human (endogenous in HT1080)) (UniProt P08183); experiment: co-IP; HT1080 cells in media lacking FBS, 0.5 micromolar rGal-3-V5 with or without 1% GCS-100/MCP for 24 h; lysates immunoprecipitated with P-gp antibody, blotted for V5; only the binder purified

| Substance | binding [1] | binding [2] |
| --- | --- | --- |
| P-glycoprotein (from UniProt P08183 1-1280) | binds | – |
| recombinant Gal-3-V5 (from UniProt P17931 1-250) | – | binds |
